# Experimental data taken from US20150283212A1, “ORAL CALCITONIN COMPOSITIONS AND APPLICATIONS THEREOF” (Novartis AG, priority 2007, published 2015).
# At least one peptide structure holds a part that was inferred or is arguable (an end, a ring closure or a residue).
# Assay: Pharmacodynamic effects of orally administered salmon calcitonin
# Type: in vivo
smiles,measurement,setting,value
CC(C)C[C@H](NC(=O)[C@H](CCCCN)NC(=O)CNC(=O)[C@H](CC(C)C)NC(=O)[C@@H](NC(=O)[C@@H]1CSSC[C@H](N)C(=O)N[C@@H](CO)C(=O)N[C@@H](CC(N)=O)C(=O)N[C@@H](CC(C)C)C(=O)N[C@@H](CO)C(=O)N[C@@H]([C@@H](C)O)C(=O)N1)C(C)C)C(=O)N[C@@H](CO)C(=O)N[C@@H](CCC(N)=O)C(=O)N[C@@H](CCC(=O)O)C(=O)N[C@@H](CC(C)C)C(=O)N[C@@H](Cc1c[nH]cn1)C(=O)N[C@@H](CCCCN)C(=O)N[C@@H](CC(C)C)C(=O)N[C@@H](CCC(N)=O)C(=O)N[C@H](C(=O)N[C@@H](Cc1ccc(O)cc1)C(=O)N1CCC[C@H]1C(=O)N[C@@H](CCCNC(=N)N)C(=O)N[C@H](C(=O)N[C@@H](CC(N)=O)C(=O)N[C@H](C(=O)NCC(=O)N[C@@H](CO)C(=O)NCC(=O)N[C@H](C(=O)N1CCC[C@H]1C(N)=O)[C@@H](C)O)[C@@H](C)O)[C@@H](C)O)[C@@H](C)O [salmon calcitonin],initial urinary calcium excretion,"0-1.5 hr, dose-related",increases
same,later urinary calcium excretion,"9-12 hr, dose-related",decreases
same,plasma calcium levels,does not appear to be dose-dependent,small decreases
same,ionized blood calcium,dose-related,decreases
same,serum CTX-I concentration (a marker of bone resorption),dose-related,significant suppression
same,serum phosphate,dose-related,decreases
